Measured values as given in the supplement of paper PMC7666118.
This is one part of the list.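 The calls were made as follows: active = dose-dependent thermal stabilisation significant by F-test of dose-response against flat model at 10% FDR; inactive = not significant.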

Chains of the proteins cited; added tags and fusions are not shown. Lines headed by an entry give the natural chain unless they say otherwise; changes in a name come on top.
UniProt O43719: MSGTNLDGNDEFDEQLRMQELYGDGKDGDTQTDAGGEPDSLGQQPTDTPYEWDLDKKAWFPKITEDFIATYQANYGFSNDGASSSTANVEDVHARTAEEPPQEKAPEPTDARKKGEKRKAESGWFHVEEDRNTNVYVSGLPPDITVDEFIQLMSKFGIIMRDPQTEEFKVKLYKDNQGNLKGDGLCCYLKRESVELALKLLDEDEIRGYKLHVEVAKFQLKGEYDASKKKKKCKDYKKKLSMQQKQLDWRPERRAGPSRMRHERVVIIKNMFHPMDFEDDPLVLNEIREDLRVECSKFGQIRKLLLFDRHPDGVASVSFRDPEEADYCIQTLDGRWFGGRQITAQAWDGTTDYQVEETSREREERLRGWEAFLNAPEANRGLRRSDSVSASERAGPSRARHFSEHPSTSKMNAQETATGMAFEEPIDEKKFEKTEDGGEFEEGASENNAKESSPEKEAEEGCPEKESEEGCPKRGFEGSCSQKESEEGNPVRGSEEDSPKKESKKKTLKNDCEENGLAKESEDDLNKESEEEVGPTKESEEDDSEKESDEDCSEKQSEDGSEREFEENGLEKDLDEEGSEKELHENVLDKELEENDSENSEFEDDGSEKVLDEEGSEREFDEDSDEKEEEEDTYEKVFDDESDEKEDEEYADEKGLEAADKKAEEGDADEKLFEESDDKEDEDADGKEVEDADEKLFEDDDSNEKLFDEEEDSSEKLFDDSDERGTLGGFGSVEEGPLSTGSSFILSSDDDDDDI
UniProt Q8N448: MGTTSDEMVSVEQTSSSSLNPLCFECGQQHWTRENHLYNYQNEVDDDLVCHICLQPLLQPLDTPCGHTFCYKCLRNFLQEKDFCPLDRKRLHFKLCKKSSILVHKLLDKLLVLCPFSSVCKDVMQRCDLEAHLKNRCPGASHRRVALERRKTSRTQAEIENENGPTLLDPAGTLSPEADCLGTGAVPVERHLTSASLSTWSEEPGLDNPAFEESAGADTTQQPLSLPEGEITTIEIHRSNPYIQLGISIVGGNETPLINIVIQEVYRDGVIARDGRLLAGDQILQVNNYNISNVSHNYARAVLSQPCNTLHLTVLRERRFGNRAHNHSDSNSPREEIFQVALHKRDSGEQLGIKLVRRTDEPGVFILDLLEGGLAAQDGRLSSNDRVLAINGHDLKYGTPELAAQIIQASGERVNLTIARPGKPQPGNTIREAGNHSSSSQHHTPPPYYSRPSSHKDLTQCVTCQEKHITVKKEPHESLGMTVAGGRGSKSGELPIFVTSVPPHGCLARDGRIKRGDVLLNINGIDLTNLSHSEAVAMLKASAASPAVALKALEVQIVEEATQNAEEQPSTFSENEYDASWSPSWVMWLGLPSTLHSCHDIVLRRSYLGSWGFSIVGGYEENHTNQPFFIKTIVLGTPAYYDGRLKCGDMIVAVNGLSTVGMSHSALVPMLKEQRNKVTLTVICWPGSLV
UniProt P14316: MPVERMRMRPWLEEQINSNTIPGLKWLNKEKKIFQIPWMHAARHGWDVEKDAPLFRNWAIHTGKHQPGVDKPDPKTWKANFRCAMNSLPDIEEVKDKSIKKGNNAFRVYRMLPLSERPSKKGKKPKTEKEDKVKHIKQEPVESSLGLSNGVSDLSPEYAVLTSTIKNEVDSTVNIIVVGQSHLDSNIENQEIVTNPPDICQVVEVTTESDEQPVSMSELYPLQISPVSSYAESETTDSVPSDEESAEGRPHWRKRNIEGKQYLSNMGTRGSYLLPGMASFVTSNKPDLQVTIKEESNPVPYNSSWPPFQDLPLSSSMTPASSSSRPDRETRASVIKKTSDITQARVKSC
UniProt O95163: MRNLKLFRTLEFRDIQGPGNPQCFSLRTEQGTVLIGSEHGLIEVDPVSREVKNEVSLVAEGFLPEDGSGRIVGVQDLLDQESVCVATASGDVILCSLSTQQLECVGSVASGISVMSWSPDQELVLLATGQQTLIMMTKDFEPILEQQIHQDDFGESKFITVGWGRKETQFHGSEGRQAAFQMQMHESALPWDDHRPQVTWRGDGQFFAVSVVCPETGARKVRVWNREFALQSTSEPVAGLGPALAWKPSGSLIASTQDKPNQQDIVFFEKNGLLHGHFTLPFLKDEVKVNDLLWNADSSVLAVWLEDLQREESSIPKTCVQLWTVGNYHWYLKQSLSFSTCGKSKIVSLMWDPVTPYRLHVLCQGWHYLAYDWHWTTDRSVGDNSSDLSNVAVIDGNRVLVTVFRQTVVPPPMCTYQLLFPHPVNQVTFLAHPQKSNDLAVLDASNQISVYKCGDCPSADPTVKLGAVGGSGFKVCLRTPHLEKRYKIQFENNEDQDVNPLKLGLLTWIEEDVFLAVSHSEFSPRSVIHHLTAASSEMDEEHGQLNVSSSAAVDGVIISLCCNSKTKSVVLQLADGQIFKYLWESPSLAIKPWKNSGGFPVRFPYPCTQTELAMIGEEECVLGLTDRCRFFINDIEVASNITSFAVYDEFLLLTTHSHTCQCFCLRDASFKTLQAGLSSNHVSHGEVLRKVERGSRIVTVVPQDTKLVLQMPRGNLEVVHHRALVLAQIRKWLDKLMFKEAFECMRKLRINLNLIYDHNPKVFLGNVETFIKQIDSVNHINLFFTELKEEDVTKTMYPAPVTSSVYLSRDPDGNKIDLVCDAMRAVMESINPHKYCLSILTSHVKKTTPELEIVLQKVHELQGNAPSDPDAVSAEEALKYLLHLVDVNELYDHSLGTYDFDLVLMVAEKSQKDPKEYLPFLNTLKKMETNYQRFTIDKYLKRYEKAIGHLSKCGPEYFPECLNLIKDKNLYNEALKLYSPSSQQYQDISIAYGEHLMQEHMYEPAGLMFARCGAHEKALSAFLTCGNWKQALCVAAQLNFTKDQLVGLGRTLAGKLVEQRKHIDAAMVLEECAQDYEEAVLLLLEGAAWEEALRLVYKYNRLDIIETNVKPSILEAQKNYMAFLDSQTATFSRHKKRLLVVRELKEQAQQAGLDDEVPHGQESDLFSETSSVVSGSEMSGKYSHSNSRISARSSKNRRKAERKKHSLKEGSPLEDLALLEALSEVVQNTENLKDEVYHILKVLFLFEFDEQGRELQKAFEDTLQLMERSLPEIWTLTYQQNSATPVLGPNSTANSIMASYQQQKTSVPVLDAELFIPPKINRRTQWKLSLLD
UniProt P41252: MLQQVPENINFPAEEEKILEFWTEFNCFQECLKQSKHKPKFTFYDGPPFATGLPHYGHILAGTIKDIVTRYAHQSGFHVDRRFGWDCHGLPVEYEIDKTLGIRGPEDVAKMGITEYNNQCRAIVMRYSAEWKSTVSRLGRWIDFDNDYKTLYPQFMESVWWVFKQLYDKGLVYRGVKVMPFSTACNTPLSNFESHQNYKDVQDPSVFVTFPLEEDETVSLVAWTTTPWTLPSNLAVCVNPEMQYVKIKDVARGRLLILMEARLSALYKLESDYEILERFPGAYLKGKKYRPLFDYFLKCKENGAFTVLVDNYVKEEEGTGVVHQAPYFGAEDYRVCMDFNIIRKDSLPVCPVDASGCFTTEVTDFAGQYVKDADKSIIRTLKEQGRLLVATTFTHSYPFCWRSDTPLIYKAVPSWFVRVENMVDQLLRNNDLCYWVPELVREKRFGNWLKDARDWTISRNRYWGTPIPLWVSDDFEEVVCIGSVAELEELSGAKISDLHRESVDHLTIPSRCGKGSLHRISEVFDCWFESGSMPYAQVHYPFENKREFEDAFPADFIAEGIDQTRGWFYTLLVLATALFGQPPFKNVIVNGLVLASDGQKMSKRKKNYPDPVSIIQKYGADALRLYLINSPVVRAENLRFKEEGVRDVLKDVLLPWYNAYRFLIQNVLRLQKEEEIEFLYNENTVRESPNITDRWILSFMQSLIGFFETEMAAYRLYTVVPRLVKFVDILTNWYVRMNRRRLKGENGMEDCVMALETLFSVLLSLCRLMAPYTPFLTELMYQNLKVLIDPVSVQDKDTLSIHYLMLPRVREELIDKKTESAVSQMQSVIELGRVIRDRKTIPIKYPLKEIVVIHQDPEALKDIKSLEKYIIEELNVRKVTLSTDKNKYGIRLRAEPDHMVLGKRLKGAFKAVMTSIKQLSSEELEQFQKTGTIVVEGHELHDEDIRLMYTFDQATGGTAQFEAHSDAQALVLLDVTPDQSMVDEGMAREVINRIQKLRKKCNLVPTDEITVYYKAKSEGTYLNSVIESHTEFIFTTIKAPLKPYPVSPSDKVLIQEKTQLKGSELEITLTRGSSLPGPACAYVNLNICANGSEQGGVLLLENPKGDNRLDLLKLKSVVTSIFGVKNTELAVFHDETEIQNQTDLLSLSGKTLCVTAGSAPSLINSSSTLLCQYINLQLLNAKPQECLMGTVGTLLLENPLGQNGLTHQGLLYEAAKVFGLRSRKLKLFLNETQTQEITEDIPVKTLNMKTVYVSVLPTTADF
UniProt Q9Y496, whole entry: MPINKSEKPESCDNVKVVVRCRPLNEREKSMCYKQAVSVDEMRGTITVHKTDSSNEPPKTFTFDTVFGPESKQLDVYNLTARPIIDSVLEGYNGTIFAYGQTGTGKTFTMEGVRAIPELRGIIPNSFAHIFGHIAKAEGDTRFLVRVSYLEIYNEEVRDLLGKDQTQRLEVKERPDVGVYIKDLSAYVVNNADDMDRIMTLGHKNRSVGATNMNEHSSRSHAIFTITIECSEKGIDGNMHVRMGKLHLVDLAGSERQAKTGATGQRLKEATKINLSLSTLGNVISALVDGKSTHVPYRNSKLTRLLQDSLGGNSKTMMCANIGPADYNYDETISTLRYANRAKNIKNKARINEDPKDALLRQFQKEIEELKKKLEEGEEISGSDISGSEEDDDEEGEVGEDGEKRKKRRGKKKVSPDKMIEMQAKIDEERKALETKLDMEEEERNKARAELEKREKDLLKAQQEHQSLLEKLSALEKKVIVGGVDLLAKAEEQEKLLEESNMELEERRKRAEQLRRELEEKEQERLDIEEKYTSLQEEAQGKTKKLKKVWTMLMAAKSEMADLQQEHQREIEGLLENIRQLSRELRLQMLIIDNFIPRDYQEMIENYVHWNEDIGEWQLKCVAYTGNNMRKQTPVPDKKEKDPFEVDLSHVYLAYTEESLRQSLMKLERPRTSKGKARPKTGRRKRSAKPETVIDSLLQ
UniProt Q9NZL4: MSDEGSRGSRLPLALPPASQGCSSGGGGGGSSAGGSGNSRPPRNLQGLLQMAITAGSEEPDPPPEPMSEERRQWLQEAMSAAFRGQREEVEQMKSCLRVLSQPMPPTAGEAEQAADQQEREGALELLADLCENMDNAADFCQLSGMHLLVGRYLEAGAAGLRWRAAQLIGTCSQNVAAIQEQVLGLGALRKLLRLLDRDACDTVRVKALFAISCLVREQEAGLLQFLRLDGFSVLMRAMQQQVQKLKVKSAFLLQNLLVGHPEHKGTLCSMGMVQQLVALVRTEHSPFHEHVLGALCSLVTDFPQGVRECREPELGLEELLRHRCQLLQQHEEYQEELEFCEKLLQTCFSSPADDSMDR
UniProt O95373, whole entry: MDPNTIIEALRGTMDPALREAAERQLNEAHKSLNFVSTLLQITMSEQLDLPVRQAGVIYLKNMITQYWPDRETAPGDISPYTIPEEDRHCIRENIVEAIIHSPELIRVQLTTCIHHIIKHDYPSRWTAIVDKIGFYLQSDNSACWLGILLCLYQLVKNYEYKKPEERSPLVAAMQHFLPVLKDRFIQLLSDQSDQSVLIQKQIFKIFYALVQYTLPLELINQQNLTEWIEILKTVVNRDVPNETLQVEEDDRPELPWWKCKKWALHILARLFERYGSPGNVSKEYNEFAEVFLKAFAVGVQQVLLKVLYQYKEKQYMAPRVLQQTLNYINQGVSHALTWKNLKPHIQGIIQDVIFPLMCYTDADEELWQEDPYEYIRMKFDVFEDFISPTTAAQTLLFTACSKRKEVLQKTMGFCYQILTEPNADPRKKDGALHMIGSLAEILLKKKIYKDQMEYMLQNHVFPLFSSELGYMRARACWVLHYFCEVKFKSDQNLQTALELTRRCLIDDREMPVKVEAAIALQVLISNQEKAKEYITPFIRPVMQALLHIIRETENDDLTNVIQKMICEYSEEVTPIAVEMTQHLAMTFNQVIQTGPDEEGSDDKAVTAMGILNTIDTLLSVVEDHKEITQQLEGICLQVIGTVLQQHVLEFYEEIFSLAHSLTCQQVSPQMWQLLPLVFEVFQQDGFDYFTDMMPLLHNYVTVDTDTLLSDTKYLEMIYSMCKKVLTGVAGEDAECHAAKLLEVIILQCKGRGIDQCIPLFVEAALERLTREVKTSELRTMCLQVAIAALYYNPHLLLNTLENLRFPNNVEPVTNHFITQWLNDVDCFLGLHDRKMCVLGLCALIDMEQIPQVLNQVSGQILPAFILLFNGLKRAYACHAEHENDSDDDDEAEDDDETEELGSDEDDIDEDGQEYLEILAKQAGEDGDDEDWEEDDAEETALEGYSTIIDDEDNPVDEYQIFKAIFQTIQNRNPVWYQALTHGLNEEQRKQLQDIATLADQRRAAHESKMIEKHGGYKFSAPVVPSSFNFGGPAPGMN

compound: Nc1nc2c(ncn2[C@@H]2O[C@H](COP(=O)(O)OP(=O)(O)OP(=O)(O)O)[C@@H](O)[C@H]2O)c(=O)[nH]1; assay: dose-dependent thermal stabilisation call (2D-TPP, DLPTP, 10% FDR) (binary (1 = stabilised)); higher = stabilised by the compound; settings: system: Jurkat gel-filtered lysate; concentration range 1-500 µM

dose-dependent thermal stabilisation call, inactive:
KDM6A (UniProt O15550) 0
IREB2 (UniProt P48200) 0
IFI35 (UniProt P80217) 0
INTS14 (UniProt Q96SY0) 0
HOOK3 (UniProt Q86VS8) 0
KLHDC4 (UniProt Q8TBB5) 0
LMNB2 (UniProt Q03252) 0
LAMTOR2 (UniProt Q9Y2Q5) 0
LRCH1 (UniProt Q9Y2L9) 0
LPXN (UniProt O60711) 0
IRF2BP1 (UniProt Q8IU81) 0
KBTBD8 (UniProt Q8NFY9) 0
HSPA6 (UniProt P17066) 0
IMPDH2 (UniProt P12268) 0
HTATSF1 (UniProt O43719) 0
LNX2 (UniProt Q8N448) 0
IRF2 (UniProt P14316) 0
ISY1 (UniProt Q9ULR0) 0
IPO4 (UniProt Q8TEX9) 0
LMO3 (UniProt Q8TAP4) 0
IKBKAP (UniProt O95163) 0
IARS (UniProt P41252) 0
KIAA1429 (UniProt Q69YN4) 0
KIF3A (UniProt Q9Y496) 0
KIAA0754 (UniProt O94854) 0
KDM5C (UniProt P41229) 0
HSPBP1 (UniProt Q9NZL4) 0
LRBA (UniProt P50851) 0
KXD1 (UniProt Q9BQD3) 0
LAMP2 (UniProt P13473) 0

A run of entries from further up, for reference:
dose-dependent thermal stabilisation call, inactive:
HTATSF1 (UniProt O43719) 0
LNX2 (UniProt Q8N448) 0

Following part.

dose-dependent thermal stabilisation call, active:
HSPA9 (UniProt P38646) 1
KIN (UniProt O60870) 1
IMPDH1 (UniProt P20839) 1
IPO13 (UniProt O94829) 1
IPO7 (UniProt O95373) 1
KLC2 (UniProt Q9H0B6) 1
